PubChem BioAssay AID1259254, NCATS | 2017
Purpose: 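Finding genes that stop cells copying their DNA twice in one cycle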 (primary screen). Cell system: human HCT116 colorectal cancer cells. Reagent: single siRNA against human genes. Duration: 3 days. Measured: 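Nuclei stained with Hoechst and imaged; cell-cycle phase assigned by DNA content; G2 share scaled per plate, non-targeting siRNA 0%, GMNN siRNA 100%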. Reading the numbers: G2 robust z-score: higher = more G2 cells, more excess DNA replication. Rule for the call: 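Active siRNAs have a G2 robust z of 5 or more median absolute deviations over the median, which in these data means about 38% or higher of GMNN control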.
The deposit covers about 59,000 reagents; below is a part drawn at random. Over the whole deposit, about 1,550 (2.6%) are marked active. 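G2 share is only a proxy for re-replication; each gene was hit by three separate siRNAs, and active genes were retested.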 Further read-outs or replicates are left out here. Not stated in the record: the amount of reagent.

HRNR [SID160765961] gave G2 robust z-score 1.07; inactive.
HRNR [SID160765962] gave G2 robust z-score -0.937; inactive.
Depletion of HRNR [SID160765963] gave: G2 robust z-score 1.78; inactive.
After knock-down of RNF169 [SID160762168] the results were G2 robust z-score 4.81; inactive.
RNF169 [SID160762169] showed G2 robust z-score -0.477; inactive.
After knock-down of RNF169 [SID160762170], the record shows G2 robust z-score 0.371; inactive.
After knock-down of SNORC [SID160725217], the screen gave G2 robust z-score 0.0784; inactive.
SNORC [SID160725218] gave G2 robust z-score -0.465; inactive.
Silencing of SNORC [SID160766082] came out at: G2 robust z-score 1.31; inactive.
For DGCR6 [SID160719726], the entry reads G2 robust z-score -0.415; inactive.
With knock-down of DGCR6 [SID160719727] the results were G2 robust z-score 1.01; inactive.
Against DGCR6 [SID160724125], the values are G2 robust z-score -0.0926; inactive.
H2BC13 [SID160724144] gave G2 robust z-score 0.898; inactive.
H2BC13 [SID160724145] scored G2 robust z-score 0.281; inactive.
For H2BC13 [SID160724146], the values are G2 robust z-score -0.526; inactive.
RMDN1 [SID160740098] scored G2 robust z-score -0.438; inactive.
After knock-down of RMDN1 [SID160740099] the results were G2 robust z-score 7.12; active.
Against RMDN1 [SID160740100], the entry reads G2 robust z-score 0.524; inactive.
CILK1 [SID160732185] showed G2 robust z-score 0.541; inactive.
Depletion of CILK1 [SID160732193] came out at: G2 robust z-score -1.37; inactive.
Against CILK1 [SID160732202], the values are G2 robust z-score 4.34; inactive.
With knock-down of OSTM1 [SID160738878], the record shows G2 robust z-score -0.195; inactive.
After knock-down of OSTM1 [SID160738879], the record shows G2 robust z-score -0.679; inactive.
OSTM1 [SID160738880] scored G2 robust z-score -0.108; inactive.
